Test results from article PMC2877795, “Laminin chain assembly is regulated by specific coiled-coil interactions” (Journal of Structural Biology, 2010).
Results are given in words; binding and its absence hold for the method and conditions named.

Key:
[1] = target: T1, recombinant mouse laminin β3 chain C-terminal coiled-coil fragment (945–1168) (mouse) (UniProt Q61087); experiment: native gel or EMSA; mixtures of one β and one γ chain fragment; 10% non-denaturing PAGE (acid gels for basic complexes); mixtures reduced, heated to 70 °C for 5 min and cooled; run overnight at 50 V; Coomassie; bands confirmed by in-gel trypsin digestion and mass spectrometry; both purified
T1 sequence: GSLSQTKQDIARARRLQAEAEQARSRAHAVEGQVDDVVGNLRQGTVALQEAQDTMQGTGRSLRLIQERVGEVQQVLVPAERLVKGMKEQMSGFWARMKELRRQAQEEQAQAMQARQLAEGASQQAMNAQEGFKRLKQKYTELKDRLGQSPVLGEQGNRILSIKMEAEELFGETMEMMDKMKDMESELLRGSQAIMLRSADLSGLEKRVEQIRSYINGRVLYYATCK

[2] = target: T2, β3 + γ1 mixture of the recombinant mouse laminin coiled-coil fragments (mouse) (UniProt Q61087+P02468); experiment: native gel or EMSA; mixtures of one α, one β and one γ chain fragment; 10% non-denaturing PAGE (acid gels for basic complexes); mixtures reduced, heated to 70 °C for 5 min and cooled; run overnight at 50 V, room temperature, no cooling; Coomassie; bands confirmed by in-gel trypsin digestion and mass spectrometry; both purified
T2 sequence 1: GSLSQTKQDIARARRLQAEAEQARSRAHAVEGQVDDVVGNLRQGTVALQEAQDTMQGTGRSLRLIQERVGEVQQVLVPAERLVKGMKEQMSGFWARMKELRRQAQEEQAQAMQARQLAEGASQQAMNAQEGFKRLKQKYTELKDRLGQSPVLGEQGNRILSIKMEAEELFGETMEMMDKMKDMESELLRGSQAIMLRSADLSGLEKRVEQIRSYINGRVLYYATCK
T2 sequence 2: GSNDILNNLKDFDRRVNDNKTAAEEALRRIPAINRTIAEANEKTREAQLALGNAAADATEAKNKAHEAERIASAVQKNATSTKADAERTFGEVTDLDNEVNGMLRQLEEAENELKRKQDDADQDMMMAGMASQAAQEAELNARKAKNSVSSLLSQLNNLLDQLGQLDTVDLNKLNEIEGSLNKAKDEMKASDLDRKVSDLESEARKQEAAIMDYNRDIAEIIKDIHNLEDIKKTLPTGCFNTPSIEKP

[3] = target: T3, β1γ2 complex of the recombinant mouse laminin coiled-coil fragments (mouse) (UniProt P02469+Q61092); experiment: as above
T3 sequence 1: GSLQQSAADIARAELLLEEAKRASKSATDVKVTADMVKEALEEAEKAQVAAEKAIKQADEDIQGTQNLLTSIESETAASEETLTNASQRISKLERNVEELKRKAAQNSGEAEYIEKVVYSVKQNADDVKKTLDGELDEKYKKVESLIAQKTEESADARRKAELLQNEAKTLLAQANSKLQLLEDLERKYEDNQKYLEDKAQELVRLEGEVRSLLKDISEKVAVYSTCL
T3 sequence 2: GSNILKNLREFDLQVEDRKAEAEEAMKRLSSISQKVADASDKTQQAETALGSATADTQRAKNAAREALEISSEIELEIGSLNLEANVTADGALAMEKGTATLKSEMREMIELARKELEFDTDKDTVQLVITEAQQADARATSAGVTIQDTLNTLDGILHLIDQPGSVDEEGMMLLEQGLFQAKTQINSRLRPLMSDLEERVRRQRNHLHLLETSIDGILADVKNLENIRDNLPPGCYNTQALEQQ

[4] = target: T4, β3γ2 complex of the recombinant mouse laminin coiled-coil fragments (mouse) (UniProt Q61087+Q61092); experiment: as above
T4 sequence 1: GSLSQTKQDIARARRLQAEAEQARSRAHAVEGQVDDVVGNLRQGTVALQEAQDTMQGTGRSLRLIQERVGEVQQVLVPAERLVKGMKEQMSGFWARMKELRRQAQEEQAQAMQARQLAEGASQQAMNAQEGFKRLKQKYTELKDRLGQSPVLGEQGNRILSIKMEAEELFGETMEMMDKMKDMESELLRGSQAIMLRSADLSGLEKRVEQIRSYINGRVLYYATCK
T4 sequence 2: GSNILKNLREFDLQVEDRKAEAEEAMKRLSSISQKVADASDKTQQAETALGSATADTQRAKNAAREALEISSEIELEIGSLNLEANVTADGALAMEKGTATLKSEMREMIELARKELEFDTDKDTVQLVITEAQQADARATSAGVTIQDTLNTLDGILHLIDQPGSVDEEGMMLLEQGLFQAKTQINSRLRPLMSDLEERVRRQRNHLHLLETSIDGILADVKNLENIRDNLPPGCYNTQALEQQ

[5] = target: T5, β3 + γ3 mixture of the recombinant mouse laminin coiled-coil fragments (mouse) (UniProt Q61087+Q9R0B6); experiment: as above
T5 sequence 1: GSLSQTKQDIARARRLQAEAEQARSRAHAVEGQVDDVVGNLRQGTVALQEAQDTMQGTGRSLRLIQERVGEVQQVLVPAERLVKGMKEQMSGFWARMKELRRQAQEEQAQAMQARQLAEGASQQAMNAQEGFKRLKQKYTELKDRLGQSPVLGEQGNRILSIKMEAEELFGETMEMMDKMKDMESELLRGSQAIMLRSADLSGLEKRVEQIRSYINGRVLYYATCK
T5 sequence 2: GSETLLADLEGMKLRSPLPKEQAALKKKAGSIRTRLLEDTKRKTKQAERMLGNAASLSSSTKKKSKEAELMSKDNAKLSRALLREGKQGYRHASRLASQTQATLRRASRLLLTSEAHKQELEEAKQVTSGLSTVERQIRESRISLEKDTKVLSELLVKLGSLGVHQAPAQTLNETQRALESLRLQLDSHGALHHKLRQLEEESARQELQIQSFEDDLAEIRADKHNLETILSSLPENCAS

[6] = target: T6, β2γ2 complex of the recombinant mouse laminin coiled-coil fragments (mouse) (UniProt Q61292+Q61092); experiment: as above
T6 sequence 1: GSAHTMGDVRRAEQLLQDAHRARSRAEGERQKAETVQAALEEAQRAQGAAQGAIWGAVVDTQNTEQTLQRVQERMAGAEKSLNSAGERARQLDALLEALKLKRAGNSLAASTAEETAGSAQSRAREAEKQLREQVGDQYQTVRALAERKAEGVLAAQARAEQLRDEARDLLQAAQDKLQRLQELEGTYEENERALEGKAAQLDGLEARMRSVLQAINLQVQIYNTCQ
T6 sequence 2: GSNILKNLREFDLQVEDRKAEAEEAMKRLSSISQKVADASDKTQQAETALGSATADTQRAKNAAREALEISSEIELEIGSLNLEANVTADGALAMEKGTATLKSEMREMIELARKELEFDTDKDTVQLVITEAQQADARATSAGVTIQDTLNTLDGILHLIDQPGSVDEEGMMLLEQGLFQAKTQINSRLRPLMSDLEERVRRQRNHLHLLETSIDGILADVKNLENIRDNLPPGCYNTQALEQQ

[7] = target: T7, β2γ3 complex of the recombinant mouse laminin coiled-coil fragments (mouse) (UniProt Q61292+Q9R0B6); experiment: as above
T7 sequence 1: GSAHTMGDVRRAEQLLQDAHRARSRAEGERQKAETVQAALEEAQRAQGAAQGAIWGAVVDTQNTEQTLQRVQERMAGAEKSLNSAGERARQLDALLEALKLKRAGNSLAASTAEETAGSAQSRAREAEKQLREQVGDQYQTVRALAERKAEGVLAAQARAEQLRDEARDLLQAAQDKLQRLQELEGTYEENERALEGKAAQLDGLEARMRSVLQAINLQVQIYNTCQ
T7 sequence 2: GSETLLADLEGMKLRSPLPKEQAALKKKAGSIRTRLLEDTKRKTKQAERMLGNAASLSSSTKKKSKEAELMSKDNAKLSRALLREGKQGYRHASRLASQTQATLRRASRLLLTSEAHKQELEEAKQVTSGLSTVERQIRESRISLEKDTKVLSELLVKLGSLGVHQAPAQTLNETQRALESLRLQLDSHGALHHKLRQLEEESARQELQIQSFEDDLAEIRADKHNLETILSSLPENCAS

[8] = target: T8, β1γ3 complex of the recombinant mouse laminin coiled-coil fragments (mouse) (UniProt P02469+Q9R0B6); experiment: as above
T8 sequence 1: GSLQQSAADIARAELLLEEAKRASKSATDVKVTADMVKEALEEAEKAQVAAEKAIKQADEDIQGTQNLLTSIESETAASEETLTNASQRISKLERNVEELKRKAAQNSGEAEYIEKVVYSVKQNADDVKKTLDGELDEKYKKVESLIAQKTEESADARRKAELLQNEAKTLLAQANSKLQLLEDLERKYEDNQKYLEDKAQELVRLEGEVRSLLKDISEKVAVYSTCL
T8 sequence 2: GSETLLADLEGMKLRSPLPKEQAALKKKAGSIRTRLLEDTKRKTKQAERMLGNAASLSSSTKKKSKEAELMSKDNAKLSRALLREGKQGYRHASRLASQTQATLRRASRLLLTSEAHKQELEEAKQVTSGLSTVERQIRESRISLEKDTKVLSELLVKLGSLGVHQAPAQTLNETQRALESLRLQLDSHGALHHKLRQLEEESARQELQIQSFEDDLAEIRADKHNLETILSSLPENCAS

Measured: binding

B1: recombinant mouse laminin γ1 chain C-terminal coiled-coil fragment (1362–1607) (domain or fragment)
chain: GSNDILNNLKDFDRRVNDNKTAAEEALRRIPAINRTIAEANEKTREAQLALGNAAADATEAKNKAHEAERIASAVQKNATSTKADAERTFGEVTDLDNEVNGMLRQLEEAENELKRKQDDADQDMMMAGMASQAAQEAELNARKAKNSVSSLLSQLNNLLDQLGQLDTVDLNKLNEIEGSLNKAKDEMKASDLDRKVSDLESEARKQEAAIMDYNRDIAEIIKDIHNLEDIKKTLPTGCFNTPSIEKP
notes: two residues (GlySer) left from the protease recognition site after thrombin cleavage; laminin γ1 chain, mouse, C-terminal coiled-coil fragment, residues 1362-1607 of the native chain (246 residues); source: E. coli JM109(DE3), purified (Ni2+-Sepharose, denaturing, 8 M urea), 6xHis tag removed by thrombin; not shown: 6xHis, N-terminal, cleaved; pPEP-T leader (short C-terminal fragment of the …)
no binding: [1]

B2: recombinant mouse laminin α2 chain C-terminal coiled-coil fragment (1924–2145) (domain or fragment)
chain: GSYSNIKDYIDEAEKVAREAKELAQGATKLATSPQGLLKEDAKGSLQKSFRILNEAKKLANDVKGNHNDLNDLKTRLETADLRNSGLLGALNDTMDKLSAITNDTAAKLQAVKEKAREANDTAKAVLAQVKDLHQNLDGLKQNYNKLADSVAKTNAVVKDPSKNKIIADAGTSVRNLEQEADRLIDKLKPIKELEDNLKKNISEIKELINQARKQANSIKVSVS
notes: two residues (GlySer) left from the protease recognition site after thrombin cleavage; laminin α2 chain, mouse, C-terminal coiled-coil fragment, residues 1924-2145 of the native chain (222 residues); source: E. coli JM109(DE3), purified (Ni2+-Sepharose, denaturing, 8 M urea), 6xHis tag removed by thrombin; not shown: 6xHis, N-terminal, cleaved; pPEP-T leader (short C-terminal fragment of the …)
not listed: [1] | [8]
no binding: all other assays above

B3: recombinant mouse laminin α3 chain C-terminal coiled-coil fragment (2176–2397) (domain or fragment)
chain: GSYENILNAIRAAEDAASKATSASKSAFQTVIKEDLPKRAKTLSSDSEELLNEAKMTQKRLQQVSPALNSLQQTLKTVSVQKDLLDANLTVARDDLHGIQRGDIDSVVIGAKSMVREANGITSEVLDGLNPIQTDLGRIKDSYESARREDFSKALVDANNSVKKLTRKLPDLFIKIESINQQLLPLGNISDNVDRIRELIQQARDAANKVAIPMRFNGKSGVEV
notes: two residues (GlySer) left from the protease recognition site after thrombin cleavage; laminin α3 chain, mouse, C-terminal coiled-coil fragment, residues 2176-2397 of the native chain (222 residues); the printed numbers fit the long (α3B) form; source: E. coli JM109(DE3), purified (Ni2+-Sepharose, denaturing, 8 M urea), 6xHis tag removed by thrombin; not shown: 6xHis, N-terminal, cleaved; pPEP-T …
no binding: [2] | [5] | [6] | [8] | [7]
